In the assay the test system is HL60 (HL−60 human leukemia cell). Nature of the assay: cells. On the set-up: MTT cell proliferation assay, OD 570 nm, IC50 from triplicate dose-response. The settings on record: MTT, 48 h. As to the method:
The cell proliferation assay was evaluated using the MTT assay as described by Mosmann, with modifications. Cells were seeded into 96−well plates (5 × 10^3 cells/well) and exposed to various concentrations of compounds. After 48 h of treatment, 20 μL of 2.5 mg/mL MTT reagent was added to each well, and the cells were further incubated for 4 h at 37 ℃. The cells in each well were then treated with 100 μL of dimethyl sulfoxide (DMSO), and the optical density (OD) was recorded at 570 nm using a microplate reader (Bio−Tek). All experiments were performed in parallel three times, and the IC50 values were derived from the mean OD values of triplicate tests versus the drug concentration curves. […] HL−60 human leukemia cell is sensitive to Topo II inhibitors, which are commonly used to evaluate the inhibitory effect of Topo II inhibitors on proliferation.

Molecules are shown by their SMILES.

On to `CN[C@@H]1C[C@H]2O[C@@](C)([C@@H]1OC)n1c3ccccc3c3c4c(c5c6ccccc6n2c5c31)C(=O)NC4` [K−B6, Staurosporine], for which the IC50 is under 0.01 µM.

For orientation: IC50 means the concentration that inhibits the measured activity by half. Read a high IC50 as weaker potency.

For the origin of these results see PMC9458065, “Discovery of Quinacrine as a Potent Topo II and Hsp90 Dual-Target Inhibitor, Repurposing for Cancer Therapy” (Molecules, 2022).
